{
  "source": "PubChem BioAssay AID540303",
  "about": "(National Center for Advancing Translational Sciences (NCATS), 2011)",
  "note": "The campaign covered roughly 330,000 compounds. About 1,000 (0.3%) were called active. Inconclusive means that the source gave no clear call. Such entries were picked first, then a sample of the others. Calls come from the whole dose curve; as a rule, active = well fitted inhibition curve with a large enough effect; inconclusive = small, poorly fitted or top-dose-only effect; inactive = no such curve, though single readings can be large or run the other way; tested in mouse RAW 264.7 cells. Where the call is inconclusive, the potency comes from a doubtful curve fit. Potency is the fitted concentration of half-maximal effect.",
  "data": [
    {"assay": "qHTS for Inhibitors of Cell Surface uPA Generation; note: nearly all actives have a fitted effect of over 55% in size", "conditions": "cell surface uPA generation assay; series mostly up to 38.3 µM", "in_short": "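Using RAW 264.7 macrophages, the screen measures whether compounds keep cellular ATP up by preventing uPA-driven LF translocation. Treatment lasted 24 h at 37 C, with a final top concentration of 38.3 uM, and luminescence was the readout.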", "values": [
      {"smiles": "C=Cc1ccc(CSc2cc(C)nc3nc(C)nn23)cc1", "Potency": "inconclusive: 7.94 µM [inhibitor, partial curve, poor fit]"},
      {"smiles": "Cc1cccc(CCN=c2c([N+](=O)[O-])nn(-c3ccccc3)n2O)c1", "Potency": "inconclusive: 11.2 µM [inhibitor, single point]"},
      {"smiles": "O=C(N/N=C(\\c1ccccc1)c1ccccn1)c1cccc([N+](=O)[O-])c1", "Potency": "inconclusive: 1.58 µM [inhibitor, full curve, poor fit]"},
      {"smiles": "CC(=O)c1ccc(NC(=O)c2cc3ccccc3o2)cc1", "Potency": "inconclusive: 0.316 µM [inhibitor, full curve, poor fit]"},
      {"smiles": "COC(=O)N1C(=O)[C@@](c2ccccc2)(C2CCCCC2)N1C(=O)OC", "Potency": "active: 8.91 µM"},
      {"smiles": "COc1cccc(N2CC(O)=C(c3nc4ccccc4s3)C2=N)c1", "Potency": "inconclusive: 0.891 µM [inhibitor, full curve, poor fit]"},
      {"smiles": "C[C@@H](NC(=O)c1ncn(Cc2ccccc2)c1C(=O)N[C@H](C)c1ccccc1)c1ccccc1", "Potency": "inconclusive: 3.55 µM [inhibitor, partial curve, poor fit]"},
      {"smiles": "COc1ccc(S(=O)(=O)Nc2cccc3c2O[C@H](CN(C)Cc2ccc(Cl)c(Cl)c2)[C@@H](C)CN([C@H](C)CO)C3=O)cc1", "Potency": "inconclusive: 12.6 µM [inhibitor, single point]"},
      {"smiles": "CCOC(=O)Cn1cc(/C=N/NC(=O)c2cc3ccccc3o2)c2ccccc21", "Potency": "inconclusive: 3.98 µM [inhibitor, partial curve, poor fit]"},
      {"smiles": "Cc1ccc2nc(-c3ccc(NC(=O)CCS(=O)(=O)c4ccccc4)cc3)sc2c1", "Potency": "inconclusive: 5.01 µM [inhibitor, partial curve, poor fit]"},
      {"smiles": "CC(=O)Nc1cccc(NC(=O)C(=O)Nc2ccc3c(c2)N(C(=O)C2CC2)CCC3)c1", "Potency": "inconclusive: 10 µM [inhibitor, partial curve]"},
      {"smiles": "CCOc1ccccc1NC(=S)N(CCCN1CCOCC1)Cc1cn(C)c2ccccc12", "Potency": "inactive"},
      {"smiles": "Oc1ccccc1C1CC(c2cccs2)=NC(c2cccc(Br)c2)N1", "note": "(centres undefined)", "Potency": "inactive"},
      {"smiles": "COc1ccc(OCc2cc(C(=O)N(C)Cc3cc(C)no3)no2)c(Cl)c1", "Potency": "inactive"},
      {"smiles": "CC(=O)N/C(=C\\c1ccccc1)C(=O)OCC(=O)NC1CCCC1", "Potency": "inconclusive: 7.94 µM [inhibitor, partial curve]"},
      {"smiles": "CCOc1ccc(OCCCCN2CCCC2)cc1", "Potency": "inactive"},
      {"smiles": "CCCC(C)c1nnc(NC(=O)C(=O)OCC)s1", "note": "(centres undefined)", "Potency": "inactive"},
      {"smiles": "COc1ccc(-c2ccc3oc(-c4ccc(OC)cc4)c(C#CCO)c3c2)cc1", "Potency": "inconclusive: 0.398 µM [inhibitor, full curve, poor fit]"},
      {"smiles": "S=c1[nH]nc(Cc2cccs2)n1-c1ccccc1", "Potency": "inactive"},
      {"smiles": "COCCCNC(=S)N1CCCN(c2nc3c(C)c(C)ccc3cc2C#N)CC1", "Potency": "inactive"},
      {"smiles": "CCN(c1ccccc1)S(=O)(=O)c1ccc2c(c1)N(C(C)=O)CCS2", "Potency": "inconclusive: 3.16 µM [inhibitor, single point]"},
      {"smiles": "COc1ccc(S(=O)(=O)N/N=C\\c2ccc([N+](=O)[O-])o2)c(OC)c1", "Potency": "inconclusive: 10 µM [inhibitor, partial curve, poor fit]"},
      {"smiles": "CCSc1nnc(NC(=O)CC)s1", "Potency": "inactive"},
      {"smiles": "Cc1cc(NC(=O)/C=C/c2ccccc2)no1", "Potency": "inconclusive: 14.1 µM [inhibitor, partial curve, poor fit]"},
      {"smiles": "COCCN(CC(=O)NC1CCCCC1)C(=O)CCCC(=O)Nc1ccccn1", "Potency": "inactive"},
      {"smiles": "C[C@@H]1C(c2ccc(F)cc2)=NN(c2ccccc2)[C@H]1C(=O)N1CCOC1=O", "Potency": "inconclusive: 10 µM [inhibitor, single point]"},
      {"smiles": "COc1ccc(CC(=O)Nc2ccc(N3CCOCC3)cc2)cc1OC", "Potency": "inconclusive: 12.6 µM [inhibitor, single point]"},
      {"smiles": "Cc1cc(=O)[nH]c2nnc(-c3ccc(Br)cc3)n12", "Potency": "inconclusive: 0.891 µM [inhibitor, full curve, poor fit]"},
      {"smiles": "CCN(CC)C(=O)[C@H]1C[C@H](CC(=O)NC/C=C(\\C)CCC=C(C)C)C(=O)N2CCc3c([nH]c4cc(-c5ccco5)ccc34)[C@]12C", "Potency": "inconclusive: 20 µM [inhibitor, single point]"},
      {"smiles": "CC(C)(CC(=O)O)CC(=O)N1CCN(c2nc3ccc(Cl)cc3s2)CC1", "Potency": "inconclusive: 0.562 µM [inhibitor, full curve, poor fit]"},
      {"smiles": "COc1ccc(-n2cnnc2SCC(=O)Nc2ccc(N3CCOCC3)cc2)cc1", "Potency": "inactive"},
      {"smiles": "Cc1cc(NC(=O)Cc2ccccc2)c2ccccc2n1", "Potency": "inconclusive: 3.55 µM [inhibitor, partial curve, poor fit]"},
      {"smiles": "COc1cccc(/C=C2\\SC(=S)N(CCCC(=O)N3CCCCC3)C2=O)c1", "Potency": "inconclusive: 3.16 µM [inhibitor, partial curve, poor fit]"},
      {"smiles": "CC(=O)N1CCC2(CC1)CC(=O)c1cc(OCC(=O)N3CCCC3)ccc1O2", "Potency": "inconclusive: 1.78 µM [inhibitor, full curve, poor fit]"},
      {"smiles": "O=C(Nc1ccccc1)Nc1ccccc1", "Potency": "inconclusive: 11.2 µM [inhibitor, single point]"},
      {"smiles": "CCOc1cccc(-c2nc3cc(C)ccc3o2)c1", "Potency": "inactive"},
      {"smiles": "O=C(N=Nc1c(O)[nH]c2ccccc12)c1ccc2c(c1)OCO2", "Potency": "inconclusive: 0.631 µM [inhibitor, full curve, poor fit]"},
      {"smiles": "Cc1cc(C)c2nc(NC(=O)c3ccc([N+](=O)[O-])o3)sc2c1", "Potency": "inactive"},
      {"smiles": "Cc1ccc(O)c(/C=N/NC(=O)Cc2ccc(Cl)cc2)c1", "Potency": "inconclusive: 15.8 µM [inhibitor, single point]"},
      {"smiles": "COc1cc([C@@H]2c3cc4c(cc3[C@@H](O[C@@H]3O[C@@H]5CO[C@@H](C)O[C@H]5[C@H](O)[C@H]3O)[C@H]3COC(=O)[C@H]23)OCO4)cc(OC)c1O", "Potency": "inconclusive: 0.398 µM [inhibitor, full curve, poor fit]"},
      {"smiles": "CC1=C(C(=O)OCc2ccccc2)C(c2ccc(C(F)(F)F)cc2)NC(=O)N1CCCCCC(=O)O", "note": "(centres undefined)", "Potency": "inconclusive: 5.62 µM [inhibitor, partial curve, poor fit]"},
      {"smiles": "O=C(Nc1cccc(Cl)c1)C1CCCN(C2=NS(=O)(=O)c3ccccc32)C1", "note": "(centres undefined)", "Potency": "inactive"},
      {"smiles": "O=C(NCCn1cc(SCc2ccccc2)c2ccccc21)c1ccccc1F", "Potency": "inconclusive: 12.6 µM [inhibitor, single point]"},
      {"smiles": "CCC(CO)(CO)N(CC(=O)Nc1ccc(OC)cc1)CC(=O)Nc1ccc(OC)cc1", "Potency": "inconclusive: 10 µM [inhibitor, single point]"},
      {"smiles": "Fc1ccc(N2CCN(c3nc(CN4CCOCC4)nc4scc(-c5ccccc5)c34)CC2)cc1", "Potency": "inconclusive: 3.55 µM [inhibitor, single point]"},
      {"smiles": "N#C/C(=N\\Nc1ccccc1)C(=N)N1CCCCCC1", "Potency": "inconclusive: 11.2 µM [inhibitor, partial curve, poor fit]"},
      {"smiles": "CCN(CC)C(=O)c1ccc(S(=O)(=O)Cc2ccc(C)cc2)c([N+](=O)[O-])c1", "Potency": "inconclusive: 11.2 µM [inhibitor, single point]"},
      {"smiles": "Cc1ccccc1OCc1nc2ccccc2n1C", "Potency": "inconclusive: 3.55 µM [inhibitor, partial curve]"},
      {"smiles": "CC1CCCN(CCCNC(=O)c2ccc3c(c2)N(Cc2ccc(F)cc2)C(=O)c2ccccc2S3=O)C1", "note": "(centres undefined)", "Potency": "inactive"},
      {"smiles": "Nc1ncnc2c1nc(Sc1ccc(Cl)cc1)n2[C@@H]1O[C@@H]2COP(=O)(O)O[C@H]2[C@H]1O", "Potency": "inconclusive: 10 µM [inhibitor, single point]"},
      {"smiles": "Cc1ccc(NC(/C=C/N(C)C)=C/C(=O)C(F)(F)F)c(C)c1", "Potency": "inactive"},
      {"smiles": "CCOC(=O)C1=C(COC(=O)/C=C/c2cc(OC)c(OC)c(OC)c2)NC(=O)NC1C", "note": "(centres undefined)", "Potency": "inconclusive: 1.12 µM [inhibitor, partial curve, poor fit]"},
      {"smiles": "COc1cc(OC)c2c(-c3cccc(-c4ccc(CO)cc4)c3)cc(=O)oc2c1", "Potency": "active: 0.891 µM"},
      {"smiles": "CN1/C(=C\\C=[N+](C)c2ccccc2)C(C)(C)c2ccccc21", "Potency": "inconclusive: 12.6 µM [inhibitor, partial curve, poor fit]"},
      {"smiles": "Cc1onc(-c2ccccc2Cl)c1C(=O)N(C)C1CCCCC1", "Potency": "inconclusive: 20 µM [inhibitor, partial curve, poor fit]"},
      {"smiles": "O=c1c2ccccc2oc2cc(NCCCn3ccnc3)ccc12", "Potency": "inconclusive: 5.01 µM [inhibitor, partial curve, poor fit]"},
      {"smiles": "CC(=O)Nc1ccc(S(=O)(=O)NC2=C(N3CCN(C)CC3)C(=O)c3ccccc3C2=O)cc1", "Potency": "inconclusive: 10 µM [inhibitor, single point]"},
      {"smiles": "COC(C[C@H]1O[C@@H]1C(=O)[C@H](C)OCc1ccccc1)OC", "Potency": "inconclusive: 5.62 µM [inhibitor, partial curve, poor fit]"},
      {"smiles": "Cc1ccc(-c2csc(NC(=O)c3cccc(N4C(=O)CCC4=O)c3)n2)o1", "Potency": "active: 3.55 µM"},
      {"smiles": "CC(=Nc1ccccc1O)c1sc2ccccc2c1O", "Potency": "inconclusive: 10 µM [inhibitor, single point]"},
      {"smiles": "COc1ccccc1/C=C/c1nc2ccccc2c(=O)o1", "Potency": "inconclusive: 28.2 µM [inhibitor, single point]"},
      {"smiles": "O=C(C1CCC1)N1CCN(c2ccc(C(F)(F)F)cc2[N+](=O)[O-])CC1", "Potency": "inconclusive: 8.91 µM [inhibitor, partial curve, poor fit]"},
      {"smiles": "CC(=O)Nc1ccc(S(=O)(=O)NCCCN2CCN(Cc3ccccc3)CC2)cc1Cl", "Potency": "inactive"},
      {"smiles": "Cc1ccc(C(=O)OCC(=O)NCCN2C(=O)CSC2=O)cc1[N+](=O)[O-]", "Potency": "inconclusive: 5.62 µM [inhibitor, partial curve, poor fit]"}
    ]}
  ]
}
